From the supplement of paper PMC6078165

What was measured:
MDAMB231 = assay: relative JC-1 red fluorescence (viability) vs pre-drug, monoculture (fraction); higher = more viable cancer cells; conditions: coculture fibroblast: none (monoculture)
Method: (§1)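 JC-1 labelled TNBC cells grown in monoculture (density kept equal with unlabelled cancer cells) in 384-well plates in FluoroBrite medium, treated with one of 42 anticancer drugs at 0.1, 1, 10 or 100 uM. JC-1 red fluorescence (mitochondrial integrity, surrogate of apoptotic death) was read by plate reader every 8 h for 72 h. Values are normalised to each well's pre-drug value, with background from alamethicin. The stock of one drug was tenfold lower, so its dose labels may be too high. Monoculture values are repeated alongside each fibroblast plate and are averaged here.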

MDAMB436 = assay: as above; conditions: coculture fibroblast: none (monoculture)
Method: as §1

CC(C)(C#N)c1cc(Cn2cncn2)cc(C(C)(C)C#N)c1 [Anastrozole]
relative JC-1 red fluorescence
Conditions	8 h	16 h	24 h	32 h	40 h	48 h	56 h	64 h	72 h
MDAMB231, 0.1 µM	0.746	0.663	0.703	0.623	0.591	0.61	0.584	0.613	0.618
MDAMB231, 1 µM	0.7291	0.684	0.566	0.564	0.516	0.495	0.455	0.465	0.453
MDAMB231, 10 µM	0.763	0.7435	0.659	0.6663	0.641	0.64	0.601	0.613	0.608
MDAMB231, 100 µM	0.764	0.782	0.641	0.734	0.707	0.68	0.646	0.635	0.627
MDAMB436, 0.1 µM	0.8598	0.719	0.732	0.68	0.666	0.65	0.652	0.65	0.648
MDAMB436, 1 µM	0.84	0.743	0.727	0.671	0.67	0.664	0.655	0.647	0.654
MDAMB436, 10 µM	0.8696	0.776	0.786	0.715	0.696	0.677	0.681	0.67	0.677
MDAMB436, 100 µM	0.8802	0.823	0.818	0.781	0.7584	0.7467	0.74	0.7247	0.72

CC(C)C[C@H](NC(=O)[C@@H](COC(C)(C)C)NC(=O)[C@H](Cc1ccc(O)cc1)NC(=O)[C@H](CO)NC(=O)[C@H](Cc1c[nH]c2ccccc12)NC(=O)[C@H](Cc1cnc[nH]1)NC(=O)[C@@H]1CCC(=O)N1)C(=O)N[C@@H](CCCNC(=N)N)C(=O)N1CCC[C@H]1C(=O)NNC(N)=O [Goserelin]
relative JC-1 red fluorescence
Conditions	8 h	16 h	24 h	32 h	40 h	48 h	56 h	64 h	72 h
MDAMB231, 0.1 µM	0.79841	0.685	0.84741	0.719	0.7043	0.726	0.712	0.762	0.77
MDAMB231, 1 µM	0.7	0.692	0.611	0.558	0.518	0.498	0.467	0.484	0.478
MDAMB231, 10 µM	0.8	0.758	0.76	0.707	0.671	0.675	0.647	0.671	0.677
MDAMB231, 100 µM	0.762	0.767	0.674	0.664	0.618	0.604	0.574	0.586	0.567
MDAMB436, 0.1 µM	0.859	0.7123	0.718	0.681	0.659	0.648	0.642	0.639	0.64
MDAMB436, 1 µM	0.856	0.758	0.719	0.664	0.648	0.641	0.622	0.611	0.612
MDAMB436, 10 µM	0.882	0.78267	0.7876	0.7237	0.707	0.687	0.6824	0.6694	0.6709
MDAMB436, 100 µM	0.8919	0.7999	0.785	0.723	0.704	0.679	0.67	0.661	0.653

O=NN(CCCl)C(=O)NC1CCCCC1 [Lomustine]
relative JC-1 red fluorescence
Conditions	8 h	16 h	24 h	32 h	40 h	48 h	56 h	64 h	72 h
MDAMB231, 0.1 µM	0.715	0.64774	0.846	0.68	0.663	0.704	0.706	0.759	0.773
MDAMB231, 1 µM	0.7243	0.682	0.6576	0.594	0.5602	0.5538	0.5373	0.5617	0.5679
MDAMB231, 10 µM	0.683	0.654	0.686	0.603	0.572	0.579	0.564	0.601	0.605
MDAMB231, 100 µM	0.602	0.539	0.591	0.524	0.513	0.51	0.503	0.544	0.548
MDAMB436, 0.1 µM	0.852	0.774	0.801	0.772	0.779	0.781	0.793	0.801	0.828
MDAMB436, 1 µM	0.8544	0.753	0.7506	0.6994	0.681	0.663	0.65	0.642	0.637
MDAMB436, 10 µM	0.822	0.79	0.8036	0.765	0.76	0.765	0.762	0.771	0.776
MDAMB436, 100 µM	0.8287	0.779	0.817	0.784	0.796	0.816	0.819	0.83	0.853

O=C1c2c(O)ccc(O)c2C(=O)c2c(NCCNCCO)ccc(NCCNCCO)c21 [Mitoxantrone]
relative JC-1 red fluorescence
Conditions	8 h	16 h	24 h	32 h	40 h	48 h	56 h	64 h	72 h
MDAMB231, 0.1 µM	0.6663	0.636	0.538	0.579	0.565	0.553	0.5216	0.546	0.547
MDAMB231, 1 µM	0.351	0.344	0.451	0.378	0.379	0.387	0.387	0.411	0.427
MDAMB231, 10 µM	0.0832	0.0664	0.124	0.145	0.131	0.0821	0.0534	0.053	0.0234
MDAMB436, 0.1 µM	0.809	0.735	0.716	0.658	0.639	0.629	0.631	0.624	0.62
MDAMB436, 1 µM	0.674	0.587	0.61	0.5679	0.569	0.573	0.565	0.563	0.566
MDAMB436, 10 µM	0.5478	0.43	0.474	0.427	0.371	0.313	0.267	0.216	0.17

CO[C@H]1C[C@@H]2CC[C@@H](C)[C@@](O)(O2)C(=O)C(=O)N2CCCC[C@H]2C(=O)O[C@H]([C@H](C)C[C@@H]2CC[C@@H](O)[C@H](OC)C2)CC(=O)[C@H](C)/C=C(\C)[C@@H](O)[C@@H](OC)C(=O)[C@H](C)C[C@H](C)/C=C/C=C/C=C/1C [Rapamycin]
relative JC-1 red fluorescence
Conditions	8 h	16 h	24 h	32 h	40 h	48 h	56 h	64 h	72 h
MDAMB231, 0.1 µM	0.7871	0.68	0.73	0.6573	0.6339	0.649	0.631	0.671	0.688
MDAMB231, 1 µM	0.731	0.75168	0.7	0.688	0.659	0.648	0.62	0.638	0.627
MDAMB231, 10 µM	0.711	0.844	0.791	0.943	0.955	0.951	0.918	0.945	0.936
MDAMB231, 100 µM	0.6411	0.767	0.554	0.745	0.694	0.625	0.517	0.394	0.312
MDAMB436, 0.1 µM	0.875	0.7341	0.74114	0.677	0.665	0.645	0.635	0.633	0.628
MDAMB436, 1 µM	0.869	0.83	0.846	0.81	0.803	0.809	0.809	0.813	0.831
MDAMB436, 10 µM	0.8442	0.971	0.903	0.86368	0.863	0.752	0.831	0.79	0.828
MDAMB436, 100 µM	0.9683	0.794	0.86	0.826	0.854	0.817	0.818	0.634	0.535

Values are relative to the signal before dosing, not to a vehicle control; the signal also falls without drug.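 Cells used are triple-negative breast cancer lines, either basal-like or mesenchymal-like, grown in the absence of fibroblasts. Lower red signal means mitochondrial integrity is lost, a surrogate for apoptosis.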
